{"source": "patent US10487349B2", "about": "“Use of a fluidic device” (GRADIENTECH AB, priority 2013, dated 2019)", "tested_on": "E. coli K12 MG1655", "assay": "Microfluidic 3D culture matrix concentration-gradient antibiotic susceptibility test (CELLDIRECTOR Ruby)", "assay_type": "cell-based", "conditions": "Escherichia coli; E. coli K12 MG1655 in agarose 3D culture matrix, linear gradient of ampicillin 20-0 μg/ml, Mueller-Hinton medium, 37° C., read from light intensity profile; read-out: minimum inhibitory concentration (MIC)", "method": "Bacterium strain E. coli K12 MG1655 was cultured on a Luria broth (LB) plate. The E. coli cells were diluted by phosphate buffered saline (PBS) to OD600=0.1 as measured by a MULTISKAN® FC Microplate Photometer (Thermo Scientific). Same volumes of PBS with OD600=0.1 cells and low-melting temperature agarose were mixed together. A pipette with white tips was used to suck up 8 μl of the mixture and inject the mixture into the culture chamber of a microfluidic device CELLDIRECTOR® Ruby (Gradientech AB), see upper panel in FIG. 20. The fluid channel inputs of the microfluidic device were connected to fluid reservoirs comprising Muelle-Hinton medium and where one of the reservoirs also contained 20 μg/ml ampicillin. The speed of a pusher used to draw the medium into the fluid channels was set to 5 μl/min for 30 minutes and then to 2 μl/min for the rest of the time. […]\nThe pictures were cut to match a selected central portion of the culture chamber, see black box in FIGS. 17A and 18A. Image processing software was used to extract detected light intensity data from the pictures. A spatial growth situation distribution diagram was used to summarize the grey-scale values, i.e. detected light intensity values, of all the lines that are perpendicular to the direction of the gradient as the Y-axis with the concentration gradient as the X-axis. […]", "data": [{"smiles": "CC1(C)S[C@@H]2[C@H](NC(=O)[C@H](N)c3ccccc3)C(=O)N2[C@H]1C(=O)O", "note": "[ampicillin]", "values": [{"measurement": "MIC", "result": 5, "unit": "µg/mL"}]}]}
